Measurements taken from patent publication US20040253247A1.
No constants are given. Whether binding was seen depends on the method and setting. Some entries that bind do so weakly or less than the wild type.

Sequences of proteins named here, by UniProt entry; tags and fusion partners are left off. Residues count along the entry.
UniProt P02770, residues 25-608: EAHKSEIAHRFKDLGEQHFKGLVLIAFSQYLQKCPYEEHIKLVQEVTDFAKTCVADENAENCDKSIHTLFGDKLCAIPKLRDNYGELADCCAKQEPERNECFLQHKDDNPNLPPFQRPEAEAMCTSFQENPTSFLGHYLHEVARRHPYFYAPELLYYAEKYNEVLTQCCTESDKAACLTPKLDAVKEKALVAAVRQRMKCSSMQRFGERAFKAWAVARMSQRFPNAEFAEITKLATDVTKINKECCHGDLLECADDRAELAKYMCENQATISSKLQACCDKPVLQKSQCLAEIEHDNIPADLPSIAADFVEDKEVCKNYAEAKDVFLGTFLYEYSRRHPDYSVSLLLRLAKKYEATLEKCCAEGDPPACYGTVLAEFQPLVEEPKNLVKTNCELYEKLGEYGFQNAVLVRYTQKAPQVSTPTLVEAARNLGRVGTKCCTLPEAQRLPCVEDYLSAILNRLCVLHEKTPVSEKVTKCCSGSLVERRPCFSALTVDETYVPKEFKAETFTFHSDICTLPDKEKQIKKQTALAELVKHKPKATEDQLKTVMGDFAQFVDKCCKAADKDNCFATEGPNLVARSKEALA

B1: RD-R7 (peptide)
peptide: NTCADLVRLGLECWA
B2: RD-R5 (peptide)
peptide: DTCEDLVRLGLECWA
B3: RBC-R11 (peptide)
peptide: VWDLCLPQWGCLWDE
B4: RBC-R13 (peptide)
peptide: EFDLCLPTWGCLWED
B5: RBC-R12 (peptide)
peptide: MFDLCLPKWGCLWGN
B6: RBC-R15 (peptide)
peptide: MWDVCFPDWGCLWDV
B7: RE (peptide)
peptide: CGCVDVSDWDCWSECLWSHGA
B8: RBC-R18 (peptide)
peptide: EWDVCFPAWGCLWDQ
B9: RD-R6 (peptide)
peptide: DSCGDLLRLGLECWA
B10: RC (peptide)
peptide: DLCLRDWGCLW
B11: RD-R11 (peptide)
peptide: DTCDDLVQLGLECWA
B12: RBC-R8 (peptide)
peptide: NWDLCFPDWGCLWDD
B13: RD-R1 (peptide)
peptide: DTCSDLVGLGLECWA
B14: RBC-R20 (peptide)
peptide: EEDVCLPVWGCLWEG
B15: phage clone … (peptide)
peptide: KEASCSYWLGELVWCDNGVE
B16: phage clone … (peptide)
peptide: EKEDCSYWLGELVWCVAGVE
B17: phage clone … (peptide)
peptide: KEASCSYWLGELVWCDDGVE
B18: phage clone … (peptide)
peptide: KEASCSYWLGELVWCEDTLE
B19: phage clone … (peptide)
peptide: EDPDCSYWLGELVWCVAGVE
B20: phage clone … (peptide)
peptide: KEASCSYWLGELVWCSAGVE
B21: phage clone … (peptide)
peptide: KEASCSYWLGELVWCSGVEG
B22: phage clone … (peptide)
peptide: KEAECSYHLGELVWCVAGVE
B23: phage clone … (peptide)
peptide: KEASCSYWLGELVWCSEGVE
B24: phage clone … (peptide)
peptide: AWKTCQWLGELVWCVAGVE
B25: phage clone … (peptide)
peptide: SETTCSYWLGELVWCVAGVE
B26: phage clone … (peptide)
peptide: EEADCSYWLGELVWCVAGVE
B27: phage clone … (peptide)
peptide: NADDCSYWLGELVWCVAGVE
B28: phage clone … (peptide)
peptide: KEASCSYWLGELVWCDTLTE
B29: phage clone … (peptide)
peptide: ESEDCSYWLGELVWCVAGVE
B30: phage clone … (peptide)
peptide: KEASCSYWLGEVWKCKSGVE
B31: phage clone … (peptide)
peptide: DLADCSYWLGELVWCSRVEG
B32: phage clone … (peptide)
peptide: KEASCSYHLGELVWCVAGVE
B33: phage clone … (peptide)
peptide: KEARCWYWHGELVWCSDPEE
B34: phage clone … (peptide)
peptide: EVADCSWHLGELVWCTEGEF
B35: phage clone … (peptide)
peptide: WVDCAYHLGELVWCSTFEE
B36: phage clone … (peptide)
peptide: GEASCAYHLGELVWCDEGEG
B37: phage clone … (peptide)
peptide: GEQDCSYHMGELVWCTTVDG
B38: phage clone … (peptide)
peptide: GVRNCAYHLGELVWCTPMEF
B39: phage clone … (peptide)
peptide: GEEDCAWHLGELVWCSGGDF
B40: phage clone … (peptide)
peptide: RVADCAWHMGELVWCSELEV
B41: phage clone … (peptide)
peptide: EEASCAYHLGELVWCDAFDV
B42: phage clone … (peptide)
peptide: EQADCAWHLGELVWCTPMVF
B43: phage clone … (peptide)
peptide: GEPDCAWHLGELVWCTPMVF
B44: phage clone … (peptide)
peptide: KEASCSYWLGELVWCDGLDE
B45: phage clone … (peptide)
peptide: WVEDCSWHMGELVWCDGGEF
B46: phage clone … (peptide)
peptide: EEPDCSWHLGELVWCTPIEV
B47: phage clone … (peptide)
peptide: EVEDCAYHLGELVWCSDLEG
B48: phage clone … (peptide)
peptide: DLADCSWHLGELVWCSRVEG
B49: phage clone … (peptide)
peptide: RVEDCAYHLGELVWCTEGDE
B50: phage clone … (peptide)
peptide: KEASCSYWLGELVWCDTFDE
B51: phage clone … (peptide)
peptide: WVEDCAWHMGELVWCTKVDE
B52: phage clone … (peptide)
peptide: EEPDCSWHLGELVMCTPMEV
B53: phage clone … (peptide)
peptide: KEADCAWHMGELVWCSEMEG
B54: phage clone … (peptide)
peptide: WEEDCAWHLGELVWCAEFDE
B55: phage clone … (peptide)
peptide: READCAWHLGELVWCSERDL
B56: phage clone … (peptide)
peptide: KEADCAWHLGELVWCVAGVE
B57: phage clone … (peptide)
peptide: GEADCSYHLGELVWCNDFEE
B58: phage clone … (peptide)
peptide: GEEDCSYHLGELVMCTELDD
B59: phage clone … (peptide)
peptide: KVADCAWHMGELVWCTEVEG
B60: phage clone … (peptide)
peptide: GEADCAWHLGELVWCTKVEE
B61: phage clone … (peptide)
peptide: KEASCSYWLGELVWCVGLDE
B62: phage clone … (peptide)
peptide: WVEDCSWHLGELVWCVGLDF
B63: phage clone … (peptide)
peptide: KEASCSWHLGELVWCVAGVE
B64: phage clone … (peptide)
peptide: GEEDCAWHLGELVWCTDVED
B65: phage clone … (peptide)
peptide: KEASCAWHLGELVWCSEVEE
B66: phage clone … (peptide)
peptide: DLADCSWHLGELVWCVGLDE
B67: phage clone … (peptide)
peptide: KEASCSYWLGELVWCTEGVE
B68: phage clone … (peptide)
peptide: WEADCAWHLGELVWCTKVEE

Target: rat albumin (rat) (UniProt P02770)
Assay: phage ELISA

Binder	binding
B1	binds
B2	binds
B3	binds
B4	binds
B5	binds
B6	binds
B7	binds
B8	binds
B9	binds
B10	binds
B11	binds
B12	binds
B13	binds
B14	binds

Target: IgG-Fc [IgG part: P01857]
Assay: phage selection on IgG-Fc; not individually assayed (N/A)

Binder	binding
B15	binds
B16	binds
B17	binds
B18	binds
B19	binds
B20	binds
B21	binds
B22	binds
B23	binds
B24	binds
B25	binds
B26	binds
B27	binds
B28	binds
B29	binds
B30	binds

Target: IgG-Fc [IgG part: P01857]
Assay: general note of Table I; phage clone, M13/gIII display, EC50 in its own row

Binder	binding
B31	binds
B32	binds
B33	binds
B34	binds
B35	binds
B36	binds
B37	binds
B38	binds
B39	binds
B40	binds
B41	binds
B42	binds
B43	binds
B44	binds
B45	binds
B46	binds
B47	binds
B48	binds
B49	binds

Binder	binding
B50	binds
B51	binds
B52	binds
B53	binds
B54	binds
B55	binds
B56	binds
B57	binds
B58	binds
B59	binds
B60	binds
B61	binds
B62	binds
B63	binds
B64	binds
B65	binds
B66	binds
B67	binds
B68	binds
